Data from article PMC6024076, “mRNA Deadenylation Is Coupled to Translation Rates by the Differential Activities of Ccr4-Not Nucleases”.
These are yes or no findings as the source states them, for the method shown. Some results given as binding are weak or reduced against the parent protein; the word gives no strength. Sequences can lack the tags named with a protein.

Molecular target: T1, S. pombe Caf1 with Strep II tag, expressed in Sf9 (subunit of the Caf1-Ccr4 heterodimer) (S. pombe) (UniProt O74856)
T1 sequence: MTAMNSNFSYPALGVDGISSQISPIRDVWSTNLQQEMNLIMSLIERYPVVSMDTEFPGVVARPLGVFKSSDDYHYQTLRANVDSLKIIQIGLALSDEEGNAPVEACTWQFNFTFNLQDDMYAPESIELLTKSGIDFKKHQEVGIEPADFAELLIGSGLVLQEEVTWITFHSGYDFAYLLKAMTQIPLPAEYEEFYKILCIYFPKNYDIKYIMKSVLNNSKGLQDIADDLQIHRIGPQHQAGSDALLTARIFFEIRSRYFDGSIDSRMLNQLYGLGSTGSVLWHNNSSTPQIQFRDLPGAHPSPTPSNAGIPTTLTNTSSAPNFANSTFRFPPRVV
Assay: co-purification (Strep II affinity capture, HiTrap Q anion exchange, Superdex 200 SEC); captured from Sf9 lysate by the Strep II tag on Caf1; separated from Ccr4-Not on HiTrap Q; SEC in 20 mM HEPES pH 7.4, 50 mM NaCl, 0.1 mM TCEP

- binding: binds
B1: S. pombe Ccr4, expressed in Sf9 (subunit of the Caf1-Ccr4 heterodimer) (enzyme, UniProt O74874 1-690)
chain: MFNPRYTQGTIYPGAHPGLLTPDHQHAAILSVQNSPALENSNISEHWKQQIALATQSRSFSSPHQRAHNAAALARSGGPGFSMNYNARTGAFTGGPNAAGLSSLGGKYNTSSTTTTLTTSTTLNTSSGTTLNSTSKTTTSSVAVDDQKSKSDSKKERRDWTCLDLGGIGLRNVSTDLFKFSFLTELYINHNNLTRLPPEIGKLKNLVILDASGNSIKTIPPELGLLTELREVLLFDNMISVIPAELGTLFQLKILGIEGNPLQDVYKNQIMESGTAGLIAALRDGCPVGPPPPERGWEKLVSDDDDDVNDNVSTSVRDLTAADSNKPSTTSKNLKFTIMSYNVLCERYATSTLYGYTPSWALSWSYRKDLIMQELGGYNADIICLQEVDVENYDTFFAPQMSLKGYKGVHFPKSRVRTMNEVERRIVDGCATFFKTSKYVMHEKMVIEYNQAPSLRRQDIKLTSNMYNRVMTKDNISVITLLENKENGSRLIVANCHIHWDPQFRDVKVIQVAMLMDEIAQVATKFRNMPSKIPSDQLKDERPTYPEYLKIPILICGDFNSVQGSGVYDFLSSGSISQNHEDFMNNDYGEYTVNGRSHAFNLKSAYGESEALSFTNYTPGFKGAIDHIWYTGNSLEVTGLLKGVDKDYLSGVVGFPNAHFPSDHICLLAEFKVKQEKTPLPSSKFNNDKK
